This assay can be described thus: qHTS Assay to Find Inhibitors of Chronic Active B-Cell Receptor Signaling. The settings on record: ABC-DLBCL IkBa-CBG/CBR reporter, luminescence ratio (green luciferase fused to IkBa over red control in TMD8 lymphoma cells), 4 h. The essentials:
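Doxycycline induced both beetle luciferases in TMD8 lymphoma cells; IKK-driven degradation limits the IkappaBalpha-fused green signal, while red luminescence normalises for cell number and nonspecific effects. Compounds tested up to 46 uM, 4 hrs.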

[1] abbreviates: measured here: CBR red luminescence, cell number.
The mark [2] stands for this setting: measured here: IkBa-CBG green luminescence.

The list shows a part of the results. The main result of the screen is listed elsewhere. These columns were measured beside it and carry no call. Compounds called inactive in the main read-out are mostly missing here. The note in brackets gives the kind of curve behind each potency; many fits are weak.

Regarding `O=C(Nc1cccc(Br)c1)c1cc(S(=O)(=O)N2CCCCC2)c[nH]1`, the AC50 under setting [1] was 0.1 µM [rising, full curve, poor fit]. Still for that read-out and setting: with `CSc1nnc(-c2ccc(F)cc2)o1` the figure was 7.08 µM [rising, partial curve, poor fit]. Turning to `CC/C(=C(\c1ccccc1)c1ccc(OCCN(C)C)cc1)c1ccccc1`, the half-maximal activity concentration (AC50) is, setting by setting: under setting [1], 20.6 µM [falling, partial curve]; under setting [2], 18.4 µM [rising, partial curve, poor fit].

`CN(CC(=O)OCC(=O)NC1CCCC1)S(=O)(=O)c1ccc(Cl)cc1`: under setting [1], the half-maximal activity concentration (AC50) was 29.1 µM [rising, single point]. Still for that read-out and setting: with `COc1ccc(NS(=O)(=O)c2cccc(C(=O)NCC(c3cccs3)N3CCOCC3)c2)cc1` (stereo not given) the figure was 0.103 µM [rising, full curve, poor fit]. Still for that read-out and setting: in the case of `O=C1CCC(C(=O)N2CCCC(C(=O)c3ccc4c5c(cccc35)CC4)C2)=NN1` (stereo not given) it was 8.91 µM [falling, partial curve, poor fit]. Regarding `COc1ccc(OC)c(NC(=O)CSc2nnnn2-c2ccc3c(c2)OCO3)c1`, the AC50 runs as follows: under setting [1], 18.4 µM [rising, partial curve]; under setting [2], 32.6 µM [falling, partial curve, poor fit].

Consider `CN(C(=O)CSc1nnc(-c2cccnc2)n1-c1ccccc1F)C1CCS(=O)(=O)C1` (stereo not given), for which the AC50 under setting [1] was 35.5 µM [rising, single point]. On to `COCCNC(=S)N/N=C(\C)CCc1ccc2c(c1)OCO2`, for which the half-maximal activity concentration (AC50) under setting [2] was 22.4 µM [falling, single point]. For `Cc1cccc(C(=O)Nc2ccc(CC(=O)O)cc2)c1`, the half-maximal activity concentration (AC50) under setting [1] is 23.1 µM [rising, single point]. On the same count and under the same terms, in the case of `CC(=O)Nc1nc(COc2ccccc2)cs1` it was 20.6 µM [falling, partial curve, poor fit].

For the compound `O=S(=O)(CC12C3C4C5C1C2C(Br)(C43)C51OCCO1)c1ccccc1` (stereo not given), the AC50 under setting [1] is 3.26 µM [rising, full curve, poor fit]. On the same count and under the same terms, in the case of `O=C1c2ccccc2NC2(CCCC2)N1N=C1CCCC1` it was 22.4 µM [falling, partial curve]; in that of `COc1ccc(C(C)=O)cc1CSc1nnc(Nc2ccccc2)s1`, 29.1 µM [falling, single point].

`Cc1ccc(C(=O)Nc2nccs2)s1`: the half-maximal activity concentration (AC50) reads like this: under setting [1], 2.24 µM [falling, full curve, poor fit]; under setting [2], 14.1 µM [rising, partial curve, poor fit]. With `COC(C(=O)Nc1ccc(S(=O)(=O)Nc2ccc(F)cc2)cc1)c1ccccc1` (stereo not given), the AC50 under setting [1] was 29.1 µM [falling, partial curve, poor fit]. Take `COCCn1cc(C(=O)NCCCN2CCC(C)CC2)c2c3ccccc3n(C)c2c1=O`: the AC50 under setting [1] was 13 µM [rising, partial curve, poor fit].

For `Cc1ccccc1C(=O)Nc1ccc2c(c1)OCCO2`, under setting [1], the AC50 is 7.94 µM [falling, partial curve, poor fit]. The same measure, in the same setting: in the case of `CNS(=O)(=O)c1cccc(C(=O)OCC(=O)NCc2ccccc2)c1` it was 14.6 µM [rising, single point].

As to `CCOC(=O)c1c(NC(=O)c2ccc(S(=O)(=O)N3CCCC(C)C3)cc2)sc2c1CC(C)(C)NC2(C)C` (stereo not given), the AC50 under setting [1] was 25.1 µM [falling, single point].

As for `O=C(Oc1ccccc1)c1ccc(COC(=O)c2cnccn2)cc1`, the AC50 under setting [1] was 25.9 µM [rising, single point]. Same read-out and setting: in the case of `COc1ccc(OC)c(N/C=C/C(=C(C#N)C#N)N(C)C)c1` it was 35.5 µM [falling, single point].

`CCCCC(=O)Nc1ccc(NC(=S)NC(=O)CCCCl)cc1OC`: the AC50 under setting [1] is 9.2 µM [falling, partial curve]. As to `Cc1nc2c(=O)n(C)c(=O)n(C)c2nc1Cl`, the concentration at half-maximal activity (AC50) is, setting by setting: under setting [1], 6.51 µM [falling, partial curve]; under setting [2], 32.6 µM [rising, partial curve, poor fit]. Regarding `O=C(OCC(=O)N1CCN(c2ccc(F)cc2)CC1)c1cnc2ccccc2n1`, the half-maximal activity concentration (AC50) under setting [1] was 13 µM [rising, partial curve, poor fit]. Same read-out and setting: in the case of `CN(C)C(CNC(=O)c1cc(S(=O)(=O)N(C)c2ccccc2)ccc1Cl)c1cccs1` (stereo not given) it was 35.5 µM [falling, single point]. On the same count and under the same terms, in the case of `O=C(NC1CC(=O)N(c2ccc(F)cc2)C1)c1ccc(S(=O)(=O)N2CCOCC2)cc1` (stereo not given) it was 22.4 µM [rising, single point]. Regarding `Cc1cc(/C=C(\C#N)C(=O)NCCc2c[nH]c3ccccc23)c(C)n1C`, under setting [1], the AC50 is 20.6 µM [falling, single point]. Turning to `O=C(O)c1cccc(-c2nc3ccccc3[nH]2)c1`, the concentration at half-maximal activity (AC50) under setting [1] is 8.2 µM [falling, partial curve]. The same measure, in the same setting: in the case of `N#C/C(=C/c1ccc(Br)s1)C(=O)NCCc1c[nH]c2ccccc12` it was 29.1 µM [falling, single point]; in that of `Fc1ccccc1COc1ccc(Br)cc1CNCc1ccncc1`, 25.9 µM [falling, single point]; in that of `Cc1cc(C)n(-c2ccc(N3CCOCC3)nn2)n1`, 23.1 µM [falling, single point]. Still for that read-out and setting: with `CC(C)C[C@@H](CO)N(Cc1ccccc1)S(=O)(=O)N(Cc1ccccc1)[C@H](CO)CC(C)C` the figure was 32.6 µM [falling, single point]; with `C=CCNC(=O)COC(=O)c1nc2nccc(C)n2n1`, 35.5 µM [falling, single point]; with `Cc1ccc(NC(=O)c2cc(S(=O)(=O)N3CCC4(CC3)OCCO4)ccc2F)cc1`, 2.06 µM [falling, full curve, poor fit]. Same read-out and setting: in the case of `CCCC(=O)Nc1ccc(NC(=O)c2cccc(OC)c2)cn1` it was 12.6 µM [falling, partial curve, poor fit]. Consider `CC1CCC2C(=O)N(c3cccc(C(=O)Nc4ccc(F)cc4)c3)C(=O)C2C1` (stereo not given), for which, under setting [1], the AC50 was 25.1 µM [falling, single point]. Still for that read-out and setting: in the case of `O=C(/C=C/c1c(Cl)nc2ccccn12)Nc1ccc(F)cc1` it was 14.1 µM [falling, partial curve, poor fit]. `CCOC(=O)c1c(-c2cccc(C)c2)csc1NC(=O)c1c(-c2ccccc2)noc1C`: the AC50 under setting [2] is 14.1 µM [rising, partial curve, poor fit]. As to `NC(=S)NC1CC2CC1C1C=CCC21` (stereo not given), the AC50 under setting [1] was 4.47 µM [falling, full curve, poor fit]. Same read-out and setting: in the case of `Cc1ccc2nc(-c3ccccc3)cc(C(=O)NNC(=O)c3csc(N4CCOCC4)n3)c2c1` it was 6.51 µM [rising, single point]. Consider `CC(C)(C)c1ccc(OCC(=O)NN2Cc3ccccc3C2=N)cc1`, for which, under setting [1], the AC50 was 4.47 µM [falling, partial curve, poor fit].

For the compound `COc1cc(CN(CCc2c(C)[nH]c3ccc(C)cc23)C(=S)NC(C)(C)C)cc(OC)c1OC`, the concentration at half-maximal activity (AC50) under setting [1] was 29.1 µM [falling, single point]. Consider `COc1ccc(-c2ccc(SC)nn2)cc1`, for which the AC50 under setting [1] was 15.8 µM [falling, single point]. As for `Cc1ccccc1C(=O)Oc1cc(N)n(S(C)(=O)=O)n1`, under setting [1], the AC50 was 25.1 µM [falling, single point]. For the compound `COc1ccc(Nc2nnc(C)c3ccccc23)cc1C(N)=O`, the AC50 under setting [1] is 12.6 µM [falling, partial curve, poor fit]. On the same count and under the same terms, in the case of `COc1ccccc1NC(=O)CSc1nnc(COc2ccc(Cl)cc2)n1Cc1ccco1` it was 35.5 µM [falling, single point]. Still for that read-out and setting: with `CCN(C(=O)c1cccs1)c1nc(-c2ccc(OC)cc2)cs1` the figure was 3.55 µM [rising, full curve, poor fit]. Still for that read-out and setting: in the case of `CCCCOc1ccc(-c2c(C#N)c(N)nc(SCC(N)=O)c2C#N)cc1` it was 29.1 µM [falling, single point].

As to `CSc1ccc(-c2c(C#N)c(N)nc3c2CCCC3)cc1`, the AC50 under setting [1] is 12.6 µM [rising, partial curve, poor fit].

Take `CCN(CC)c1nc(Nc2ccc(Cl)cc2)nc(OCC#N)n1`: the AC50 under setting [1] was 0.355 µM [rising, full curve, poor fit]. Consider `COc1ccc(C(=O)Oc2c(C)occc2=O)cc1OC`, for which the concentration at half-maximal activity (AC50) under setting [1] is 29.1 µM [rising, single point].

Consider `O=C(NCc1ccc2c(c1)OCO2)C12CN(Cc3ccccc3)CC1C(c1cccc([N+](=O)[O-])c1)=NO2` (stereo not given), for which the half-maximal activity concentration (AC50) under setting [1] is 29.1 µM [rising, single point]. Turning to `COc1ccccc1NC(=O)CSc1nnc(Cn2nnc(-c3ccccc3)n2)n1-c1ccccc1`, the AC50 under setting [1] was 0.731 µM [rising, partial curve, poor fit]. Regarding `Cc1ccc2c(c1)[C@H]1[C@H](CO2)[C@H](c2ccccc2)[C@]2(C)C(=O)Nc3cc(F)ccc3C(=O)N12`, the half-maximal activity concentration (AC50) under setting [1] was 4.11 µM [falling, full curve]. On the same count and under the same terms, with `CN(C)c1ccc(/C=C(\Cl)c2nc3ccccc3s2)cc1` the figure was 20.6 µM [falling, single point]; with `CCOc1ccc(-c2cc(CCCC(=O)NCCCOC)no2)cc1`, 8.91 µM [falling, partial curve, poor fit]. Consider `CCCCCCCNC(=O)C1(CC2CC(c3cccc(Br)c3)=NO2)CCN(C(=O)c2cc(OCC)c(OCC)c(OCC)c2)CC1` (stereo not given), for which the concentration at half-maximal activity (AC50) under setting [2] was 6.51 µM [rising, partial curve, poor fit]. On to `CCC(C(=O)N1CCOCC1)n1nc(C)n2c(cc3cc(C)ccc32)c1=O` (stereo not given), for which the half-maximal activity concentration (AC50) under setting [1] was 11.2 µM [rising, partial curve, poor fit]. With `CC(=O)c1ccc(N2Cc3ccccc3/C2=N\C(=O)Nc2ccc(Cl)cc2)cc1`, the AC50 under setting [1] was 8.2 µM [rising, partial curve, poor fit]. Same read-out and setting: in the case of `COc1ccc(NC(=O)c2ccc(CNS(=O)(=O)c3cccc(OC)c3)cc2)cc1` it was 29.1 µM [rising, single point].

Values taken from PubChem BioAssay AID493014 (National Center for Advancing Translational Sciences (NCATS), 2011).
